Measurements from PMC2638020.
No constants are given. Whether binding was seen depends on the method and setting.

What was measured:
Test in all cases: AUC; sedimentation velocity; 0.2–0.8 mg/ml protein in 10 mM HEPES (pH 7.5), 150 mM NaCl, 1 mM TCEP, 8°C, 50,000 rpm; c(s) distributions (SEDFIT); both purified
[1] = target: IA2β catalytic (PTP) domain (human) (UniProt Q92932)
[2] = target: GLEPP1 catalytic (PTP) domain (human) (UniProt Q16827)
[3] = target: STEP catalytic (PTP) domain (human) (UniProt P54829)

B1: IA2β catalytic (PTP) domain (domain or fragment, UniProt Q92932 715-1010)
chain: SEEPVQSNMDISTGHMILSYMEDHLKNKNRLEKEWEALCAYQAEPNSSFVAQREENVPKNRSLAVLTYDHSRVLLKAENSHSHSDYINASPIMDHDPRNPAYIATQGPLPATVADFWQMVWESGCVVIVMLTPLAENGVRQCYHYWPDEGSNLYHIYEVNLVSEHIWCEDFLVRSFYLKNLQTNETRTVTQFHFLSWYDRGVPSSSRSLLDFRRKVNKCYRGRSCPIIVHCSDGAGRSGTYVLIDMVLNKMAKGAKEIDIAATLEHLRDQRPGMVQTKEQFEFALTAVAEEVNAIL
- binding [1]: no binding (tested: 0.8 mg/ml (∼24 μM))

B2: GLEPP1 catalytic (PTP) domain (domain or fragment, UniProt Q16827 916-1208)
chain: NPVQLDDFDAYIKDMAKDSDYKFSLQFEELKLIGLDIPHFAADLPLNRCKNRYTNILPYDFSRVRLVSMNEEEGADYINANYIPGYNSPQEYIATQGPLPETRNDFWKMVLQQKSQIIVMLTQCNEKRRVKCDHYWPFTEEPIAYGDITVEMISEEEQDDWACRHFRINYADEMQDVMHFNYTAWPDHGVPTANAAESILQFVHMVRQQATKSKGPMIIHCSAGVGRTGTFIALDRLLQHIRDHEFVDILGLVSEMRSYRMSMVQTEEQYIFIHQCVQLMWMKKKQQFCISDV
- binding [2]: no binding (tested: 0.8 mg/ml (∼24 μM))

B3: STEP catalytic (PTP) domain (domain or fragment, UniProt P54829 282-563)
chain: SRVLQAEELHEKALDPFLLQAEFFEIPMNFVDPKEYDIPGLVRKNRYKTILPNPHSRVCLTSPDPDDPLSSYINANYIRGYGGEEKVYIATQGPIVSTVADFWRMVWQEHTPIIVMITNIEEMNEKCTEYWPEEQVAYDGVEITVQKVIHTEDYRLRLISLKSGTEERGLKHYWFTSWPDQKTPDRAPPLLHLVREVEEAAQQEGPHCAPIIVHCSAGIGRTGCFIATSICCQQLRQEGVVDILKTTCQLRQDRGGMIQTCEQYQFVHHVMSLYEKQLSHQS
- binding [3]: no binding (tested: 0.8 mg/ml (∼24 μM))
